Results as given in patent publication US12383495B2, “Resident articles for gram-level dosing” (Massachusetts Institute of Technology, priority 2018, dated 2025).
At least one structure is not confirmed: it was looked up by name or label, or the drawing left a doubt.

Tests used:
[1] = In vitro drug release from drug-vinylpolysiloxane pills/articles in simulated gastric fluid; type: physicochemical; conditions: SGF, 37° C., up to 28 days
[2] = In vitro drug release from drug-VPS pills/devices in water; type: physicochemical; conditions: 37° C.

Structure (SMILES) | in vitro release from drug-VPS pill [1] | in vitro release from drug-VPS pill/device [2]
COc1c(N2C[C@@H]3CCCN[C@@H]3C2)c(F)cc2c(=O)c(C(=O)O)cn(C3CC3)c12 [moxifloxacin] | able to release | –
CO[C@H]1/C=C/O[C@@]2(C)Oc3c(C)c(O)c4c(O)c(c(/C=N/N5CCN(C)CC5)c(O)c4c3C2=O)NC(=O)/C(C)=C\C=C\[C@H](C)[C@H](O)[C@@H](C)[C@@H](O)[C@@H](C)[C@H](OC(C)=O)[C@@H]1C [rifampicin] | – | able to release
